No constants are given. Whether binding was seen depends on the method and setting. Some entries that bind do so weakly or less than the wild type.
Key:
[1] = target: T1, HOMER2 (UniProt Q9NSB8); assay: yeast two hybrid screen of cDNA libraries
T1 sequence (looked up): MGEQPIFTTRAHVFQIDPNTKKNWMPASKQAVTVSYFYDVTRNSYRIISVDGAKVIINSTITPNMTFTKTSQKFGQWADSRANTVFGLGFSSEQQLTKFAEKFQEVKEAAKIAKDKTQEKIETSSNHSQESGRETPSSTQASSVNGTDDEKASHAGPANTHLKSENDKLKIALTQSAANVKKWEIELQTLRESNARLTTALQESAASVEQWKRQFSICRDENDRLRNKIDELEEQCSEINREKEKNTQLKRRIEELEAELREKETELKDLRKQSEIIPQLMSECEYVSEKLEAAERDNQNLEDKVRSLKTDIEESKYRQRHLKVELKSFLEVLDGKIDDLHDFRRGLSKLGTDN

Amino acid sequences for entries named in this document (tags omitted). Residues count along the entry.
UniProt Q92845: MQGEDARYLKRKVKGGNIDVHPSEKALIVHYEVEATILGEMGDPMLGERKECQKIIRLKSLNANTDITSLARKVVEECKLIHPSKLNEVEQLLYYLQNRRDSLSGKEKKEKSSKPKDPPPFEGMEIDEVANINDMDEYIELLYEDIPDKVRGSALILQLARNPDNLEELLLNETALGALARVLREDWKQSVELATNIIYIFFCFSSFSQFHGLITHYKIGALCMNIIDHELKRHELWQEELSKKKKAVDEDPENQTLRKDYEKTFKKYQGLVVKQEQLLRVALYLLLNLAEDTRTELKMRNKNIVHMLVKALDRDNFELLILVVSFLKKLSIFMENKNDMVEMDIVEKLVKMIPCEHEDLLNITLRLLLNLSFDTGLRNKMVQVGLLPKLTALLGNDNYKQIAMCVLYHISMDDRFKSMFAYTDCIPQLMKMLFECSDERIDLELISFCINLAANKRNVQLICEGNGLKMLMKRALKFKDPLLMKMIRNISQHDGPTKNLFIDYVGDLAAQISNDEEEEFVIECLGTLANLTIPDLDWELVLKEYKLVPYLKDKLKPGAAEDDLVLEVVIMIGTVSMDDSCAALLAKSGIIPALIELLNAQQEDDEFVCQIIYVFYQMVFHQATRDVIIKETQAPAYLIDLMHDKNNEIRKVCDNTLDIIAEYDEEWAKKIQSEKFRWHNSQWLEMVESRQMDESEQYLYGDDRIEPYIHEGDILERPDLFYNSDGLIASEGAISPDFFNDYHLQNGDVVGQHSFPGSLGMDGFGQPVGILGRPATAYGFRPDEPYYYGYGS
UniProt O14578: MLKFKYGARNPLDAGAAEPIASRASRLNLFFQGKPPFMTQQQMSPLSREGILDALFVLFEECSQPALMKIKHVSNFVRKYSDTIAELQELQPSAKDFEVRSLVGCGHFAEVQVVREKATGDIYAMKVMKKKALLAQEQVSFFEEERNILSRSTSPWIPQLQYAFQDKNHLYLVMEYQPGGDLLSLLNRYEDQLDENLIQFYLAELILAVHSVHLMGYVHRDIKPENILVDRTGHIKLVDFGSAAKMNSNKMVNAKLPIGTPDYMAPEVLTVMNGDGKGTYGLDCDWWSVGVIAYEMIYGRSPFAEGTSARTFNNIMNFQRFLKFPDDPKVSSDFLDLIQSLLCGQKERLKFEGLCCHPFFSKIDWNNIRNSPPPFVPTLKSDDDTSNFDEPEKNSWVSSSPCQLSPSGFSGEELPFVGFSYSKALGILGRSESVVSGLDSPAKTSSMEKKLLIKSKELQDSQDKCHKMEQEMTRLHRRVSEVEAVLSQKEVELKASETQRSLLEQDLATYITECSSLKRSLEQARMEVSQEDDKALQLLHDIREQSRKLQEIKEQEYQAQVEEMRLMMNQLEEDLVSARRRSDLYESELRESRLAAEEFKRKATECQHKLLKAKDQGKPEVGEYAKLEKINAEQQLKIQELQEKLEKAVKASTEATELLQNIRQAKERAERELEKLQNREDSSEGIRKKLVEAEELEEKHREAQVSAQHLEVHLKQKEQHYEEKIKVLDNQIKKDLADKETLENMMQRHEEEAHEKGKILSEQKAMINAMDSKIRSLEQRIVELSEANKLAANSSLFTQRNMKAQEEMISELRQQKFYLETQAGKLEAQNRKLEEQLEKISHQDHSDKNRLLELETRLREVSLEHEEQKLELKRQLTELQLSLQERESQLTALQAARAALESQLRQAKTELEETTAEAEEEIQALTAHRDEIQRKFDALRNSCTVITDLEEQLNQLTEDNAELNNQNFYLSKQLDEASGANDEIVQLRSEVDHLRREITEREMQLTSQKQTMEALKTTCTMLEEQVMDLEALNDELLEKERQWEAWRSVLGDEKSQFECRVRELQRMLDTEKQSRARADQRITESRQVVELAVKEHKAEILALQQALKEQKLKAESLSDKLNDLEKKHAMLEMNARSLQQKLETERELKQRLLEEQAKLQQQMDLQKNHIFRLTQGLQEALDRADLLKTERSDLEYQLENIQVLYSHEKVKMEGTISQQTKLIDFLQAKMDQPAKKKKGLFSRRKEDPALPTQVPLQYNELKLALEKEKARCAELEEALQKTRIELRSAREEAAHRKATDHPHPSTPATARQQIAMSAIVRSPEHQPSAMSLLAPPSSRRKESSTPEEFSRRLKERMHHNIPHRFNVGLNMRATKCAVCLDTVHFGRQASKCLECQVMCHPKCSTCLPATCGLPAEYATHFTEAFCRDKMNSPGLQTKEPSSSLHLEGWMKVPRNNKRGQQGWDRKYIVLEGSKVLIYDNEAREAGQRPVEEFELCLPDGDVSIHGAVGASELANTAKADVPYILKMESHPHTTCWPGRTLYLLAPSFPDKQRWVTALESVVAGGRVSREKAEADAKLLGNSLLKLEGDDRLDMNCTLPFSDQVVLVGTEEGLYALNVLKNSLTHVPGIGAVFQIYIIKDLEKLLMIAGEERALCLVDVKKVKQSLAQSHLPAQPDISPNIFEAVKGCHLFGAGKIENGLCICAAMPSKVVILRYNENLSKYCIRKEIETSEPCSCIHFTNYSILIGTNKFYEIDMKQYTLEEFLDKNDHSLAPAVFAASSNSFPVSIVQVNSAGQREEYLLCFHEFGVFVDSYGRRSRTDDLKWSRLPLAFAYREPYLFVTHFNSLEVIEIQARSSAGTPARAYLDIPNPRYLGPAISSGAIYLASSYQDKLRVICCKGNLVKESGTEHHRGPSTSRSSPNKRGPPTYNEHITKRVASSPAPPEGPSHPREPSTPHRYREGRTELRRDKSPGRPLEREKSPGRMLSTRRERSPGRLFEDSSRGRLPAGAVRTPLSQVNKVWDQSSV
UniProt Q12840, residues 2-1032: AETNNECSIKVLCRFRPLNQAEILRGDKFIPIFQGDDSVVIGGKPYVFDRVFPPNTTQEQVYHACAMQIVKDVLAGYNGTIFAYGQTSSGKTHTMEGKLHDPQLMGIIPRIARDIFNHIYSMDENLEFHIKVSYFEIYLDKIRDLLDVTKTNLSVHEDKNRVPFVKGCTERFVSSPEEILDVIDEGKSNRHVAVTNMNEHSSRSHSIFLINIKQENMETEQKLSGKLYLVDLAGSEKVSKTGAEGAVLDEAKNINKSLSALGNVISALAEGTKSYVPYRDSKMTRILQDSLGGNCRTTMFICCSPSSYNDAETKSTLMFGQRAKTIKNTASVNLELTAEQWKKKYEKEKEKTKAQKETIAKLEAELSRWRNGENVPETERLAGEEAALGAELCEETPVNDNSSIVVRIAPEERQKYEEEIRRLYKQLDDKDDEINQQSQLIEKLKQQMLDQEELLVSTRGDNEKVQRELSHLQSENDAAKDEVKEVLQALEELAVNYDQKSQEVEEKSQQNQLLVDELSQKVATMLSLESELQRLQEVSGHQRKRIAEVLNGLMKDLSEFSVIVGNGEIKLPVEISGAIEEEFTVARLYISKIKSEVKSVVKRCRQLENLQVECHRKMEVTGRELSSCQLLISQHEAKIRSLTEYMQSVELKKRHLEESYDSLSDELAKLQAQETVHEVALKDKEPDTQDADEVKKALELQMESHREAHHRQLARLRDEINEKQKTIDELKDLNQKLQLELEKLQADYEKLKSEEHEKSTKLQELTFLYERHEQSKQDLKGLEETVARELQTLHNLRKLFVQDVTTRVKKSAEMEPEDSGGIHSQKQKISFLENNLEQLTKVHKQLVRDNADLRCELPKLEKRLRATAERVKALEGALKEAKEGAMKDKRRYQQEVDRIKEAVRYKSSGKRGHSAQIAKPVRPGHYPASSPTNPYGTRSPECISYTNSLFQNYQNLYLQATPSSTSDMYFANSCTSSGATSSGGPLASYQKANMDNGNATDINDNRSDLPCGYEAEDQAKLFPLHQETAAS

[2] = target: KIFAP3 (UniProt Q92845); assay: yeast two hybrid screen of cDNA libraries
[3] = target: T2, DLG3 (UniProt Q92796); assay: yeast two hybrid screen of cDNA libraries
T2 sequence (looked up): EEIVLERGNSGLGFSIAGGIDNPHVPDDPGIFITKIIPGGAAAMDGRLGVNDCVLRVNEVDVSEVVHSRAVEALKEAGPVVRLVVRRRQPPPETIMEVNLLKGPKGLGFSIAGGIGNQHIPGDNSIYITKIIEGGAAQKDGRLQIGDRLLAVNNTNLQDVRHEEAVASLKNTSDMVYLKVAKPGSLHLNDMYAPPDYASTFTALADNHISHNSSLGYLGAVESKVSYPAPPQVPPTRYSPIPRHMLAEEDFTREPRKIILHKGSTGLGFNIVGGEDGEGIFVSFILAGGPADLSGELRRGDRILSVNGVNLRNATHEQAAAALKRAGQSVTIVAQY

[4] = target: Citron (UniProt O14578); assay: yeast two hybrid screen of cDNA libraries
[5] = target: KIF5A (UniProt Q12840); assay: yeast two hybrid screen of cDNA libraries
[6] = target: T2, DLG3; assay: yeast two hybrid

Measured: binding

B1: bait designed in the C-terminal region of the hBAI2 gene product (without insertion of the amino acid residue) (protein, human, UniProt O60241-2 1175-1584, looked up)
chain: MTDRRSVLFQALFAVFNSAQGFVITAVHCFLRREVQDVVKCQMGVCRADESEDSPDSCKNGQLQILSDFEKDVDLACQTVLFKEVNTCNPSTITGTLSRLSLDEDEEPKSCLVGPEGSLSFSPLPGNILVPMAASPGLGEPPPPQEANPVYMCGEGGLRQLDLTWLRPTEPGSEGDYMVLPRRTLSLQPGGGGGGGEDAPRARPEGTPRRAAKTVAHTEGYPSFLSVDHSGLGLGPAYGSLQNPYGMTFQPPPPTPSARQVPEPGERSRTMPRTVPGSTMKMGSLERKKLRYSDLDFEVMHTRKRHSELYHELNQKFHTFDRYRSQSTAKREKRWSVSSGGAAERSVCTDKPSPGERPSLSQHRRHQSWSTFKSMTLGSLPPKPRERLTLHRAAAWEPTEPPDGDFQTEV
binds: [1] | [2] | [3] | [4] | [5] | [6]

— EP1693456A1
